From patent publication US6468476B1, “Methods for using-co-regulated genesets to enhance detection and classification of gene expression patterns” (Rosetta Inpharmatics, Inc., priority 1998, dated 2002)
At least one structure is not confirmed: it was looked up by name or label, or the drawing left a doubt.

Legend:
wild type yeast cells = conditions: 10 micrograms/ml; cited from earlier work
[1] = system: genesets (calcineurin-mediated, Gcn4-mediated); experiment: Response profiles projected onto genesets defined by cluster analysis of 34 experiments; assay type: cell-based, Saccharomyces cerevisiae
Description: Yeast (Saccharomyces cerevisiae, Strain YPH499, see, Sikorski and Hieter, 1989, A system of shuttle vectors and yeast host strains designated for efficient manipulation of DNA in Saccharomyces cerevisiae, Genetics 122:19-27) cells were grown in YAPD at 30° C. to an OD600 of 1.0 (±0.2), and total RNA prepared by breaking cells in phenol/chloroform and 0.1% SDS by standard procedures (Ausubel et al., 1995, Current Protocols in Molecular Biology, Greene Publishing and Wiley-Interscience, New York, Ch. 13). Poly(A)^+ RNA was selected by affinity chromatography on oligo-dT cellulose (New England Biolabs) essentially as described in Sambrook et al. (Molecular Cloning—A Laboratory Manual (2nd Ed.), Vol. 1, Cold Spring Harbor Laboratory, Cold Spring Harbor, N.Y., 1989). First strand cDNA synthesis was carried out with 2 μg poly(A)^+ RNA and SuperScript™ II reverse transcriptase (Gibco-BRL) according to the manufacturer's instructions with the following modifications. Deoxyribonucleotides were present at the following concentrations: dA, dG, and dC at 500 μM each, dT at 100 μM and either Cy3-dUTP or Cy5-dUTP (Amersham) at 100 μM. cDNA synthesis reactions were carried out at 42-44° C. for 90 minutes, after which RNA was degraded by the addition of 2 units of RNAse H, and the cDNA products were purified by two successive rounds of centrifugation dialysis using MICROCON-30 microconcentrators (Amicon) according to the manufacturer's recommendations.
Double-stranded DNA polynucleotides corresponding in sequence to each ORF in the S. cerevisiae genome encoding a polypeptide greater than 99 amino acids (based on the published yeast genomic sequence, e.g., Goffeau et al., 1996, Science 274:546-567) are made by polymerase chain reaction (PCR) amplification of yeast genomic DNA. Two PCR primers are chosen internal to each of the ORFs according to two criteria: (i) the amplified fragments are 300-800 bp and (ii) none of the fragments have a section of more than 10 consecutive nucleotides of sequence in common. Computer programs are used to aid in the design of the PCR primers. Amplification is carried out in 96 well microtitre plates. The resulting DNA fragments are printed onto glass microscope slides using the method of Shalon et al., 1996, Genome Research 6:639-645.
Fluorescently-labeled cDNAs (2-6 μg) are resuspended in 4×SSC plus 1 μg/μl tRNA as carrier and filtered using […] filters (Millipore, Bedford, Mass.). SDS is added to 0.3%, prior to heating to 100° C. for 2 minutes. Probes are cooled and immediately hybridized to the microarrays produced as described in Example 6.2, for 4 hours at 65° C. Non-hybridized probe is removed by washing in 1×SSC plus 0.1% SDS at ambient temperature for 1-2 minutes. Microarrays are scanned with a fluorescence laser-scanning device as previously described (Schena et al., 1995, Science 270:467-470; Schena et al., 1995, Proc. Natl. Acad. Sci. USA 93:[…]) and the results (including the positions of perturbations) are recorded.
A cluster analysis was performed with the combined data set. A first down selection of genes was done by requiring the genes to have a significant response in 4 or more of the 34 experiments, where this threshold was defined precisely as greater than twofold up- or down-regulation, and a confidence level of 99%, or better. This selection yielded 194 genes. […]

SMILES | Effect on the growth rate (wild type yeast cells) | Activity in Genesets 2,3, and 7 ([1]; FK506, cells with deletion of the GCN4 gene (Experiment 34)) | Response in Geneset 5 (mediated via the calcineurin protein) ([1]; FK506 at 1 μg/ml) | Response in Geneset 7 and other Genesets ([1]; FK506 at 1 μg/ml) | Geneset with the largest response in the projected profile ([1]; FK506 at 16 μg/ml and at 50 μg/ml, Geneset 7 = amino acid starvation response) | Response to Geneset 5, mediated by calcineurin ([1]; FK506 at 50 μg/ml, cells genetically deleted for calcineurin (−cna))
C[C@H]1c2cccc(O)c2C(=O)C2=C(O)[C@]3(O)C(=O)C(C(N)=O)=C(O)[C@@H](N(C)C)[C@@H]3[C@@H](O)[C@@H]21 [doxycycline] | no significant effect | – | – | – | – | –
C=CC[C@@H]1/C=C(\C)C[C@H](C)C[C@H](OC)[C@H]2O[C@@](O)(C(=O)C(=O)N3CCCC[C@H]3C(=O)O[C@H](/C(C)=C/[C@@H]3CC[C@@H](O)[C@H](OC)C3)[C@H](C)[C@@H](O)CC1=O)[C@H](C)C[C@@H]2OC [FK506] | – | removed | still present | greatly reduced | Geneset 7 | has disappeared
